Data published in publication PMC10390495.
These are yes or no findings as the source states them, for the method shown. Binding seen in cells or lysates may run through a third protein. Some binding calls cover weakened binding; strength is not graded here. For some of these results: Sequences can lack the tags named with a protein.

Tests used:
[1] = molecular target: T1, hexokinase 2 (HK2), endogenous in unedited HCC cells (human (endogenous in MHCC97H, MHCC97H IR-R)) (UniProt P52789); test: co-IP; lysates of unedited MHCC97H and MHCC97H IR-R cells post 8 Gy radiation; protein A/G magnetic beads, western blot
T1 sequence: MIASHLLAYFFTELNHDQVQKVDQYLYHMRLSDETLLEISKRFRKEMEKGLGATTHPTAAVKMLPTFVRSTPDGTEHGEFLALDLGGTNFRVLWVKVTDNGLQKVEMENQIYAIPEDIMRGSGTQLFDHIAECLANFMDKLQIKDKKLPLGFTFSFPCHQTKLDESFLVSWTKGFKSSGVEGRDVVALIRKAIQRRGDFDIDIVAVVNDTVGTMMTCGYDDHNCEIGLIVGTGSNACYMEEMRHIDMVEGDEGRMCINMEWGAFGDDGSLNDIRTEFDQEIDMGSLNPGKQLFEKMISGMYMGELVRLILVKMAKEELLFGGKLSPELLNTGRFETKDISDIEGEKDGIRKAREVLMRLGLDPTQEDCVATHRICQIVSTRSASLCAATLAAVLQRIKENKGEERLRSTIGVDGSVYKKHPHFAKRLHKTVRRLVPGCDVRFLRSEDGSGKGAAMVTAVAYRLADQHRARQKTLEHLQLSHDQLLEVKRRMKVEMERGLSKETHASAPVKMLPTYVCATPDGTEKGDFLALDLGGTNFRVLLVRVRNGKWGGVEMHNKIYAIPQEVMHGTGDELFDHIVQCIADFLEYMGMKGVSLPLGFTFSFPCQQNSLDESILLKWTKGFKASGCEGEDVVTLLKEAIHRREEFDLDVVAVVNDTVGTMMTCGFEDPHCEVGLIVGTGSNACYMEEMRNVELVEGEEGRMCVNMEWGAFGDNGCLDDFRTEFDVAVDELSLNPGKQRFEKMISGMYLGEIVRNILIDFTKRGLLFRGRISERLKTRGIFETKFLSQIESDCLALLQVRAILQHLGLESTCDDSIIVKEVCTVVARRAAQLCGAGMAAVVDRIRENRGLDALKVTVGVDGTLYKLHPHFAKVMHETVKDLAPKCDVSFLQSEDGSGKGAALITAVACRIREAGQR

[2] = molecular target: T2, Flag-tagged hexokinase 2 (HK2), overexpressed from the lentiviral vector LV-HK2 (UniProt P52789); test: co-IP; lysates of MHCC97H LV-HK2 and MHCC97L LV-HK2 cells post 8 Gy radiation; anti-HK2 or anti-AIMP2 against IgG, overnight 4 °C, protein A/G magnetic beads, western blot
T2 sequence: T1 sequence

[3] = molecular target: T1, hexokinase 2 (HK2), endogenous in unedited HCC cells (human (endogenous in MHCC97H, MHCC97H IR-R)); test: co-IP; lysates of unedited cells without ionizing radiation; protein A/G magnetic beads, western blot
[4] = molecular target: T3, aminoacyl tRNA synthetase complex interacting multifunctional protein 2 (AIMP2) (human (endogenous in MHCC97H, MHCC97L)) (UniProt Q13155); test: co-IP; lysates of MHCC97H LV-HK2 and MHCC97L LV-HK2 cells post 8 Gy radiation; anti-HK2 or anti-AIMP2 against IgG, overnight 4 °C, protein A/G magnetic beads, western blot
T3 sequence: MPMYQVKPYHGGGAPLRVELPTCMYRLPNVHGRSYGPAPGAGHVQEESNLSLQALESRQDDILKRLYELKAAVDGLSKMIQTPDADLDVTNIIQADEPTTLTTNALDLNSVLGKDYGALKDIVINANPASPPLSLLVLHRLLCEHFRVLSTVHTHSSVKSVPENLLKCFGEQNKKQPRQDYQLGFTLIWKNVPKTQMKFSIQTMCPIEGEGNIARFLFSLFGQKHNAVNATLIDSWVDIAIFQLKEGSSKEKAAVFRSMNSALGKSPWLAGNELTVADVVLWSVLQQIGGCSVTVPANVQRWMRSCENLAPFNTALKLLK

B1: aminoacyl tRNA synthetase complex interacting multifunctional protein 2 (AIMP2) (protein, UniProt Q13155 1-320)
chain: T3 sequence
[1]
  binding: binds
[2]
  binding: binds
[3]
  binding: no binding (condition: cells without ionizing radiation)

B2: Flag-tagged hexokinase 2 (HK2), overexpressed from the lentiviral vector LV-HK2 (enzyme, UniProt P52789 1-917)
chain: T1 sequence
[4]
  binding: binds
